The supplement of paper PMC10849652
Some of the results follow.

Amino acid sequences for entries named in this document (tags omitted). A change or cut given only in a name is not applied to a line headed by its entry.
UniProt Q9P0R6: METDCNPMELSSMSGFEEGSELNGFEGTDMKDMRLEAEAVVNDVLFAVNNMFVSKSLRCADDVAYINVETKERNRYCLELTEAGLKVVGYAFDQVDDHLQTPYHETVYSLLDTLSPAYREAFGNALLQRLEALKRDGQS
UniProt O43824: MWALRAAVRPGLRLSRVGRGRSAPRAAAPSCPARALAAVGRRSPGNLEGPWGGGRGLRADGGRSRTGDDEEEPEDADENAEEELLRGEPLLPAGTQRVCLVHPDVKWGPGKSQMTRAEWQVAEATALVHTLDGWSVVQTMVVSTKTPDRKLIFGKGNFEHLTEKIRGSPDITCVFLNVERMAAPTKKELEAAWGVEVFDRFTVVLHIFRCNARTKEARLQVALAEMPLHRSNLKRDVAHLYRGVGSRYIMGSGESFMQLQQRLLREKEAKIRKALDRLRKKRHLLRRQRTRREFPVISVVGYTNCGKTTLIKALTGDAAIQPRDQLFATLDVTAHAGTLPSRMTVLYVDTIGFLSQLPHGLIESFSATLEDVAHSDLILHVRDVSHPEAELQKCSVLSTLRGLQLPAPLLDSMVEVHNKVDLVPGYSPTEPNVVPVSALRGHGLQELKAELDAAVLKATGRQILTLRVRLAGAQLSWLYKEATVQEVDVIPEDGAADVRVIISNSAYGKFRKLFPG
UniProt P41594, whole entry, looked up: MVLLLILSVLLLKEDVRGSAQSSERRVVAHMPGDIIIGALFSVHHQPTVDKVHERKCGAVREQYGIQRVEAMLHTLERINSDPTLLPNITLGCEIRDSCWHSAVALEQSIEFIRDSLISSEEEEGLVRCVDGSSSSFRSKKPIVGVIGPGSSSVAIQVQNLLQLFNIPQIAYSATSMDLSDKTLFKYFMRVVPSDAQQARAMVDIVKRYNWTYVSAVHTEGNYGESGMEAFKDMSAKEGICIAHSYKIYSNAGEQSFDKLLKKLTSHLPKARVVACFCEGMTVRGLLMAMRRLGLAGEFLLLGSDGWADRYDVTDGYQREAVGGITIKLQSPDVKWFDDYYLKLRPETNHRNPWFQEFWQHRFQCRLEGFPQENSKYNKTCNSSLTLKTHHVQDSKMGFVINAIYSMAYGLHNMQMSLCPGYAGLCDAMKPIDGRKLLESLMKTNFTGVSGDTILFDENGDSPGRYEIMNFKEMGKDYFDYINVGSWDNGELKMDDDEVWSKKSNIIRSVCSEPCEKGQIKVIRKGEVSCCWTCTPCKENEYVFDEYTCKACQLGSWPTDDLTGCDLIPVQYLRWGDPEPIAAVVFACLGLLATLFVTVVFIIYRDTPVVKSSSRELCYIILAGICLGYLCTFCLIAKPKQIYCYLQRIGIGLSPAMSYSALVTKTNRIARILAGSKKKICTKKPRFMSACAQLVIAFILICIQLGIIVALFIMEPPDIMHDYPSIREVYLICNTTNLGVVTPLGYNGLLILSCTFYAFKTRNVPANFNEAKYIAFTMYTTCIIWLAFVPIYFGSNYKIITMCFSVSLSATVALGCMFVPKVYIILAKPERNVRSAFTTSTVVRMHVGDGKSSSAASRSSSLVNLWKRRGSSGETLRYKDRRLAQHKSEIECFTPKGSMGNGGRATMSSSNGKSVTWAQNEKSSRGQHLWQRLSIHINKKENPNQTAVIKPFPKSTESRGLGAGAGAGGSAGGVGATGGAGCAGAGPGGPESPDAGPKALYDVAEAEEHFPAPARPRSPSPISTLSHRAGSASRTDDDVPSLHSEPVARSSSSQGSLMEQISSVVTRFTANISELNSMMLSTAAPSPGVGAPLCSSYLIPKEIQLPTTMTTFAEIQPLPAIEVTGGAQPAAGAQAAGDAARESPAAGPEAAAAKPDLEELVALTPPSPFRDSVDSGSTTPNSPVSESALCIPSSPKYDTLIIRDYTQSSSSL
UniProt Q9Y5Z7: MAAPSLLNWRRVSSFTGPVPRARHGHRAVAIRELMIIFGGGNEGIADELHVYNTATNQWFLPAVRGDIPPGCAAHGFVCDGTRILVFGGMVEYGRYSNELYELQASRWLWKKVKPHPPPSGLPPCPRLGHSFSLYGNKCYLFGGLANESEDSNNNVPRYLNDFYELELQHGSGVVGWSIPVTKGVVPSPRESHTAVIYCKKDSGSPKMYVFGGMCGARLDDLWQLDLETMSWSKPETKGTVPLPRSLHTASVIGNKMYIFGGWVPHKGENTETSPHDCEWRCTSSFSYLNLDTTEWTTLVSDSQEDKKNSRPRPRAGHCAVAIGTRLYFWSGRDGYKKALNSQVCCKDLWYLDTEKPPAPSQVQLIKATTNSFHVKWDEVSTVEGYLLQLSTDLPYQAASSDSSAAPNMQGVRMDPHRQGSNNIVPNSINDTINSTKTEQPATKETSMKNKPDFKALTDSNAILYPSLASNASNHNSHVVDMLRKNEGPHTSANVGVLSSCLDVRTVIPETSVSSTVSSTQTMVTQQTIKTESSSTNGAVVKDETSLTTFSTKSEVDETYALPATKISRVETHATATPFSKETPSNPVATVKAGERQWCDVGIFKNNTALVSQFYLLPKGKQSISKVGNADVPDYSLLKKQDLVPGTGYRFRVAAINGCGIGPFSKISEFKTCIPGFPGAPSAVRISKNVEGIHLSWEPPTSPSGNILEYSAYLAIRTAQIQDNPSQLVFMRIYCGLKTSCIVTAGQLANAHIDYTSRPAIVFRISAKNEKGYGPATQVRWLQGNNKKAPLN
UniProt Q96CP6, whole entry, looked up: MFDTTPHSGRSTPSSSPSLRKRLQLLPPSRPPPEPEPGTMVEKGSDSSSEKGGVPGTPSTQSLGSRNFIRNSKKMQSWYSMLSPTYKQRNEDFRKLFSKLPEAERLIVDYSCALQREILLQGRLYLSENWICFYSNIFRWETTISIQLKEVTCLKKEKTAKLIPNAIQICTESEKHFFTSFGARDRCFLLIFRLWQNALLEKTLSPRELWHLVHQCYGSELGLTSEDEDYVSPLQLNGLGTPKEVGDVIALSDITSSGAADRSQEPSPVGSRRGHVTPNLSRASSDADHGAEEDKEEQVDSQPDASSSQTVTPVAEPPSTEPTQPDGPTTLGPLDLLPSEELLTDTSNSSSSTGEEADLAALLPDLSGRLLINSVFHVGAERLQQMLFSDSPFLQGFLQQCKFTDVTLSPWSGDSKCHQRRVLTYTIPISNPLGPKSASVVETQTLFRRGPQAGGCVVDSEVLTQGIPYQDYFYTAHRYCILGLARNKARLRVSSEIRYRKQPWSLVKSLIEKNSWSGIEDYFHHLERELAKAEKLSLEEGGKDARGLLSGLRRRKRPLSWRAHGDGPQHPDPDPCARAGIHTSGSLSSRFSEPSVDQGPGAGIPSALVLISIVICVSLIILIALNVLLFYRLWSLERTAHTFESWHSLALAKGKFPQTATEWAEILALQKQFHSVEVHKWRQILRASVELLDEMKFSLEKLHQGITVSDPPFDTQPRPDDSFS
UniProt Q5JVS0: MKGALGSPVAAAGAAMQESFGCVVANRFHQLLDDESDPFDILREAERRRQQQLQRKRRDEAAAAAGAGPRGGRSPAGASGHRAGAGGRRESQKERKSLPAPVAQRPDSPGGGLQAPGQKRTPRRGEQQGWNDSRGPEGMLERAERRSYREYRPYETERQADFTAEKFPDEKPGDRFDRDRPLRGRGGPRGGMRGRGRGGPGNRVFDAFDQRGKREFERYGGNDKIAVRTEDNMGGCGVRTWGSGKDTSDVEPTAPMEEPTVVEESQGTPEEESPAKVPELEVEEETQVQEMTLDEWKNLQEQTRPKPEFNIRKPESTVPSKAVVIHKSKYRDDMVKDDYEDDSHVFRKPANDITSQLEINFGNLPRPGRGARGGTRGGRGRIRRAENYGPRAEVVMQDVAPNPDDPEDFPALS
UniProt P42357: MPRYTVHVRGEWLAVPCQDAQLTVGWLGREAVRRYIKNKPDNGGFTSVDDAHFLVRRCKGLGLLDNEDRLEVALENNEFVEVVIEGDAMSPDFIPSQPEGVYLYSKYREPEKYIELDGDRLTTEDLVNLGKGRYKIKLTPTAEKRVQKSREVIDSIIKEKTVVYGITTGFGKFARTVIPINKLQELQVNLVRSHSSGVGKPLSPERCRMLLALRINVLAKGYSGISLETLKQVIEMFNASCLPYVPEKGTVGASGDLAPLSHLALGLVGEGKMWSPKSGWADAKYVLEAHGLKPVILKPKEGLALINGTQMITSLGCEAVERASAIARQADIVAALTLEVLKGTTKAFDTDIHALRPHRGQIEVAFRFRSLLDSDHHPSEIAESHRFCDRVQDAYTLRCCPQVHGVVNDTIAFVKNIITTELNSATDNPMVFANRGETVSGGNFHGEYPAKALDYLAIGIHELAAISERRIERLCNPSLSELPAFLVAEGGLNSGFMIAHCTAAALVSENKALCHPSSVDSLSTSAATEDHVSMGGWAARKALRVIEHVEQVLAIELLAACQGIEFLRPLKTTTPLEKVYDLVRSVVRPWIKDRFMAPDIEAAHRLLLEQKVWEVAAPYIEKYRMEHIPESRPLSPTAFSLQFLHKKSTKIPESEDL
UniProt Q4V328: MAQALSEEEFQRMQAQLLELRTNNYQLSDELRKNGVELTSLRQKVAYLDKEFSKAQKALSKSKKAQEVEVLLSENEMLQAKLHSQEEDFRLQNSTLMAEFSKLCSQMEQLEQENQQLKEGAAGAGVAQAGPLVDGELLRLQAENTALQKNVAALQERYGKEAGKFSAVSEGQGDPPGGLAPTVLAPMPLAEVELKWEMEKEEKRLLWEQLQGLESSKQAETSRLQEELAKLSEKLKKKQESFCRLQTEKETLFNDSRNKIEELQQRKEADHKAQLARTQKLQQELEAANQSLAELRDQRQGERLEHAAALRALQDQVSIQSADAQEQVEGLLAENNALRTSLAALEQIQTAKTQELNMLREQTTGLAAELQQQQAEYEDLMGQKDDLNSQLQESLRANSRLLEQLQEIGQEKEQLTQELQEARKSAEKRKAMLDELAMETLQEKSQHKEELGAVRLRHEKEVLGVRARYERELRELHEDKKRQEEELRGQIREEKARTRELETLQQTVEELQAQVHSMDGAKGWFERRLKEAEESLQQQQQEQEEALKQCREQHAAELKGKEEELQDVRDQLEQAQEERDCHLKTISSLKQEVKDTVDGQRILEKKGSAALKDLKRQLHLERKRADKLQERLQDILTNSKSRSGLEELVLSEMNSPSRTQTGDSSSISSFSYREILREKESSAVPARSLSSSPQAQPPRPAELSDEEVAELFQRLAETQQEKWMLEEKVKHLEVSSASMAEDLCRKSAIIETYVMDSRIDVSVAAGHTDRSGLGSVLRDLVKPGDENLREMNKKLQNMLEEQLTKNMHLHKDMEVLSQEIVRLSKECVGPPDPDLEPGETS

Tests used:
Assay in all cases: log2 fold change, soluble protein after heating vs DMSO (PISA); higher = thermal stabilisation; K562 lysate, 10 uM; active = over 0.2 and 3.5 SD of the protein, either way, in both replicates (recomputed)
erlotinib = compound: C#Cc1cccc(Nc2ncnc3cc(OCCOC)c(OCCOC)cc23)c1 [erlotinib]
Method in brief: (§1)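 Values give the log-two fold change in thermal stability against solvent controls, from duplicates. Crude K562 extract at 1 mg/mL protein, made by dounce homogenisation in PBS pH 7.4 with 1 mM MgCl2, was treated with 10 μM compound for 30 min. After 3 min heating across 48°C-58°C, aliquots were pooled, adjusted to 0.5% NP-40 at 4°C and centrifuged at 21,000xg for 90 min. The supernatant was measured by TMTpro 16plex LC-MS/MS with channel sums equalised.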

[1] = compound: C/C(=N\NC(=O)C1=CC(=CC=C1)S(=O)(=O)N2CCOCC2)/C3=C(C=CC(=C3)Cl)O
Method in brief: as §1

[2] = compound: C1=CC(=CC=C1C2=NC3=C(N2)C=C(C=C3)C(=O)N)OC4=CC=C(C=C4)Cl
Method in brief: as §1

[3] = compound: C1=CC2=C(C=CC(=C2)/C=C\3/C(=O)NC(=NCC4=CC=CS4)S3)N=C1
Method in brief: as §1

[4] = compound: C1=CC2=NC=CN=C2C=C1/C=C/3\C(=O)NC(=O)S3
Method in brief: as §1

[5] = compound: C1=CC=C(C=C1)C2=NC(=C(N2)C3=CC=NC=C3)C4=CC(=C(C=C4)Cl)O
Method in brief: as §1

[6] = compound: C1=CC=C2C(=C1)C3=NNC4=CC=CC(=C43)C2=O
Method in brief: as §1

[7] = compound: C1CCN(C1)C(=O)NC2=CC=CC(=C2)NC3=NC=C(C(=N3)NCCC4=CN=CN4)Br
Method in brief: as §1

[8] = compound: C1CN(CCC1(CC2=CC=C(C=C2)Cl)N)C3=NC=NC4=C3C=CN4
Method in brief: as §1

IRAK-1-4 Inhibitor I = compound: C1COCCN1CCN2C3=CC=CC=C3N=C2NC(=O)C4=CC(=CC=C4)[N+](=O)[O-] [IRAK-1-4 Inhibitor I]
Method in brief: as §1

ibrutinib = compound: C=CC(=O)N1CCC[C@@H](n2nc(-c3ccc(Oc4ccccc4)cc3)c3c(N)ncnc32)C1 [ibrutinib]
Method in brief: as §1

[9] = compound: CC(=O)c1cnc2ccc(-c3cc(Cl)c(O)c(Cl)c3)nc2c1N[C@H]1CC[C@H](CN(C)C)CC1
Method in brief: as §1

ralimetinib = compound: CC(C)(C)Cn1c(N)nc2ccc(-c3[nH]c(C(C)(C)C)nc3-c3ccc(F)cc3)nc21 [ralimetinib]
Method in brief: as §1

[10] = compound: CC(C)(O)CC(=O)NCCn1ccc2ncnc(Nc3ccc(Oc4cccc(C(F)(F)F)c4)c(Cl)c3)c21
Method in brief: as §1

[11] = compound: CC(C)C1=C2N=C(C=C(N2N=C1)NCC3=CC=CC=C3)NCCCCCCN
Method in brief: as §1

[12] = compound: CC1=C(C(CC(=O)N1)C2=CC=C(C=C2)C(F)(F)F)C(=O)NC3=C(C=C4C(=C3)C=NN4)F
Method in brief: as §1

[13] = compound: CC1=C(C2=C(C=C1)C(=O)C3=CC=CC=C3N2CCCN)C
Method in brief: as §1

[14] = compound: CC1=C(C=C(C=C1)NC(=O)C2=CC(=CC=C2)C(C)(C)C#N)NC3=CC4=C(C=C3)N=CN(C4=O)C
Method in brief: as §1

[15] = compound: CC1=C(C=C(C=C1)NC(=O)C2=CC(=CC=C2)N(C)C)NC(=O)C3=CC=C(C=C3)O
Method in brief: as §1

[16] = compound: CC1=CC=C(C=C1)SC2=C3C=C(SC3=CN=C2)C(=O)N
Method in brief: as §1

Measured: log2 fold change

GSKIP (UniProt Q9P0R6)
inactive: erlotinib -0.233 | [1] -0.063 | [2] -0.125 | [3] 0.07 | [4] 0.001 | [5] -0.054 | [6] -0.199 | [7] -0.032 | [8] 0.001 | IRAK-1-4 Inhibitor I -0.045 | ibrutinib -0.007 | [9] -0.075 | ralimetinib 0.032 | [10] -0.048 | [11] 0.109 | [12] 0.111 | [13] 0.031 | [14] 0.297 | [15] -0.01 | [16] 0.034

HBD (UniProt E9PEW8)
inactive: [1] 0.092 | [3] 0.054 | [6] -0.074 | [9] -0.016 | [14] 0.053 | [16] 0.185

GTPBP6 (UniProt O43824)
inactive: [1] 0.187 | [3] 0.11 | [6] -0.048 | [7] -0.082 | [8] 0.037 | [13] -0.617

HAGH isoform 2 (UniProt Q16775)
inactive: erlotinib -0.007 | [2] 0.09 | [5] -0.215 | IRAK-1-4 Inhibitor I 0.249 | [9] 0.029 | ralimetinib -0.078 | [10] 0.207 | [11] -0.038 | [13] -0.033 | [14] 0 | [15] 0.046 | [16] 0.188

GRM5 (UniProt P41594)
inactive: erlotinib -0.054 | [2] 0.047 | [4] -0.063 | [5] 0.136 | [7] -0.085 | [8] 0.043 | IRAK-1-4 Inhibitor I -0.064 | ibrutinib 0.175 | [9] -0.029 | ralimetinib 0.102 | [10] 0.039 | [11] -0.246 | [12] -0.053 | [13] -0.201 | [15] -0.019 | [16] -0.071

HCFC2 (UniProt Q9Y5Z7)
inactive: [4] -0.01 | ibrutinib 0.022 | [14] -0.209

GYPA, A0A2R8Y7F9
inactive: [4] 0.066 | ibrutinib -0.019

H3-3A (UniProt P84243)
active: [8] -0.315
inactive: erlotinib 0.038 | [1] 0.001 | [2] 0.048 | [3] -0.033 | [4] -0.055 | [6] 0.056 | [7] -0.053 | ibrutinib 0.042 | [9] -0.047 | [11] 0.013 | [14] -0.034 | [16] -0.086

GRAMD1A (UniProt Q96CP6)
inactive: erlotinib 0.054 | [2] 0.064 | [11] -0.098 | [14] -0.126

HABP4 (UniProt Q5JVS0)
inactive: [4] -0.031 | ibrutinib 0.145

HAL (UniProt P42357)
inactive: erlotinib 0.082 | [2] -0.259 | [5] -0.048 | [7] -0.164 | [8] -0.129 | IRAK-1-4 Inhibitor I -0.193 | [9] -0.023 | ralimetinib -0.233 | [10] 0.762 | [11] 0.082 | [13] 0.254 | [14] 0.258 | [15] 0.057 | [16] -0.031

Reprinted at random: 2 records from the list
HAL (UniProt P42357)
inactive: erlotinib 0.082 | [2] -0.259 | [5] -0.048 | [7] -0.164 | [8] -0.129 | IRAK-1-4 Inhibitor I -0.193 | [9] -0.023 | ralimetinib -0.233 | [10] 0.762 | [11] 0.082 | [13] 0.254 | [14] 0.258 | [15] 0.057 | [16] -0.031

H3-3A (UniProt P84243)
active: [8] -0.315
inactive: erlotinib 0.038 | [1] 0.001 | [2] 0.048 | [3] -0.033 | [4] -0.055 | [6] 0.056 | [7] -0.053 | ibrutinib 0.042 | [9] -0.047 | [11] 0.013 | [14] -0.034 | [16] -0.086

Additional results follow:

GRIPAP1 isoform 2 (UniProt Q4V328)
inactive: [14] -0.067
